In patent US5510332A, “Process to inhibit binding of the integrin α4 62 1 to VCAM-1 or fibronectin and linear peptides therefor” (priority 1994, dated 1996):
Not every detail of the peptide structures is certain; ends, links or a residue may be inferred. Where no end group is shown, it is not given here.

Chains of the proteins cited; added tags and fusions are not shown. Residues count along the entry.
UniProt P13612, 34-1032: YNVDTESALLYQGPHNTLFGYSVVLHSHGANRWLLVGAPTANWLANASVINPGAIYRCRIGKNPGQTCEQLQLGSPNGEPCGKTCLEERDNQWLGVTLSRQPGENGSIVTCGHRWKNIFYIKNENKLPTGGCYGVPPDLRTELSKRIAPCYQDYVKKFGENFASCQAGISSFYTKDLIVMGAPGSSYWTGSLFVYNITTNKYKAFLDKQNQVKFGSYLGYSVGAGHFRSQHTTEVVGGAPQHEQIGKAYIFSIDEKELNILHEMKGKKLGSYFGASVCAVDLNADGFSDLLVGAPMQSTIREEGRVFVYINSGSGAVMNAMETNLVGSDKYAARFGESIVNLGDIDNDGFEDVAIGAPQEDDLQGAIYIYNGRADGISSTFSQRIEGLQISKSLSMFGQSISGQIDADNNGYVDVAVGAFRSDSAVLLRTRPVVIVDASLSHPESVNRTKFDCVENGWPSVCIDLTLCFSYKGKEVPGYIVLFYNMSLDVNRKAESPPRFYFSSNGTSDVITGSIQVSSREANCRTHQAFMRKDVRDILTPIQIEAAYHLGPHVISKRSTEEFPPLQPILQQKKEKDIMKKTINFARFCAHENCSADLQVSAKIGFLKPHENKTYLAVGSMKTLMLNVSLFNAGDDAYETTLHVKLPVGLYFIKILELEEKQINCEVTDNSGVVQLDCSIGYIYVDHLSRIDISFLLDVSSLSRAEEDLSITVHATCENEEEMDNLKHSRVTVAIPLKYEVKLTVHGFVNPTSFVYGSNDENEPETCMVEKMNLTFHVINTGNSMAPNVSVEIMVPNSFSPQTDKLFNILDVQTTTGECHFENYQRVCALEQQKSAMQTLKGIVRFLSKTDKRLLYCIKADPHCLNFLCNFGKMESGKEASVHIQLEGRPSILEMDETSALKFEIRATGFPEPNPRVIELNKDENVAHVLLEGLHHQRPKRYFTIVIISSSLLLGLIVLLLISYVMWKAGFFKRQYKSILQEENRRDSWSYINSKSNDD

Biological target: T1, binding of the integrin α4 β1 to VCAM (Homo sapiens, UniProt P05556+P13612)
T1 construct: endogenous in cells; host or cells: Ramos (human B-cell line) for endogenous α4β1; CHO cells stably transfected with human VCAM cDNA for the counter-receptor
Assay: Cell-cell assay: 35S-labelled Ramos cells binding to VCAM expressing CHO cells
Assay type: cell-based
Conditions: single concentration at which SEQ ID NO:9 gives approximately 50% inhibition of adhesion; SEQ ID NO:9 = 1.00; >2.00 indicates little or no inhibition of VCAM-α4 β1 binding
From the text: The VCAM-1 binding assays involved assessing the ability of cells that express α4 β1 to bind cells expressing VCAM (cell-cell assay) or to bind purified VCAM protein (cell-protein assay). The integrin-expressing cell types used in these assays included the human B-cell line, Ramos, and the human promyelocytic line, HL-60. The cell-cell assay was used to compare the relative potency of peptides at a single dose. The cell-protein assay was used to generate dose response curves and determine IC50 values. A human VCAM cDNA was amplified by the polymerase chain reaction (PCR) from cDNA reverse transcribed from RNA isolated from human umbilical vein endothelial cells. The VCAM cDNA was ligated into a mammalian expression vector and electroporated into chinese hamster ovary (CHO) cells. Cells were grown in G418 selective media and clones expressing high levels of VCAM were selected by FACS analysis. VCAM expressing CHO cells and nontransfected CHO cells were plated in 48 well cluster dishes at a density of 50,000 cells/well 24 hour prior to assay. The dishes were washed with binding buffer (DMEM, 1% BSA, 1.0 mM MnCl2, 0.02% sodium azide, pH 7.4) immediately prior to assay. […] Unbound cells were removed by washing with binding buffer and the remaining bound cells were lysed with 50 mM Tris, pH 8.0, 150 mM NaCl, 1% SDS and transferred to scintillation vials for quantitation.

Substance: GPEGLDVP-NH2 [SEQ ID NO:9 W→G, Gly-Pro-Glu-Gly-Leu-Asp-Val-Pro-amide]
- relative quantity of adhered cells in relationship to peptide SEQ ID NO:9: 1.65
